# The full ranking holds about 33,000 sequences; the median of “E-score (-0.5 to 0.5)” is about -0.015, and the highest 2% start at about 0.3. This is one part of the list.
# Molecular target: T1, Abf1 (UniProt P14164)
# T1 sequence: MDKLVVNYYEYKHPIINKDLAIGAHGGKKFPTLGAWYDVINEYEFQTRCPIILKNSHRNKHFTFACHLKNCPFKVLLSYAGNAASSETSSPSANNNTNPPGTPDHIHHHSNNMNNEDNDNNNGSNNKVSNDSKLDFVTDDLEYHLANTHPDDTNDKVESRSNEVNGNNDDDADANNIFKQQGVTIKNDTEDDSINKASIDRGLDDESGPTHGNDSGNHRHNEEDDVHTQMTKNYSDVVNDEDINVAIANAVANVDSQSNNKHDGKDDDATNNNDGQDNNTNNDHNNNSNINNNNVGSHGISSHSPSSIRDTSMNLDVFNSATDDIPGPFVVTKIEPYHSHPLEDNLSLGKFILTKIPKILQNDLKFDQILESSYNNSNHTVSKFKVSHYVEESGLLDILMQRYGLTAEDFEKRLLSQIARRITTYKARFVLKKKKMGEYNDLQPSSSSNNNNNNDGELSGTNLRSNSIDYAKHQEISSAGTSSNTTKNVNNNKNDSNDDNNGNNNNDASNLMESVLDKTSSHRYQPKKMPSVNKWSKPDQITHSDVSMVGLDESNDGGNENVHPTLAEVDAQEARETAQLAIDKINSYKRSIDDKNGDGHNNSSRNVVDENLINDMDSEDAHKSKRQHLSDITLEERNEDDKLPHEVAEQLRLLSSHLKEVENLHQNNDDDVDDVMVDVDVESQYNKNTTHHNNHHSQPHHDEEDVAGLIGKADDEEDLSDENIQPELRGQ
# Assay: PBM E-score (8-mer binding enrichment) (E-score (-0.5 to 0.5)); higher = stronger / more preferred TF binding
# Details: protein concentration: 200 nM; construct: GST-full length
# Method: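 Universal 'all 10-mer' protein binding microarrays (Agilent AMADID 015681) probed with GST-tagged S. cerevisiae TFs (full-length or DBD) made by in vitro transcription/translation (PURExpress), about 100-200 nM. Bound TF was detected with fluorescent anti-GST. Each ungapped 8-mer (which stands for itself and its reverse complement) is scored by the PBM enrichment score (E-score), a modified Wilcoxon-Mann-Whitney statistic from -0.5 to +0.5, computed with the Universal PBM Analysis Suite. Scale: above 0.35 generally sequence-specific binding.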
row,Sequence,PBM E-score
1,ATGCTTCC,-0.264
2,ATTACCCG,0.0504
3,TCAGCTCA,-0.107
4,AAAGTCTG,-0.0524
5,CTCCGGTA,-0.0172
6,CATCAATG,0.00816
7,CTGTTCAC,-0.0146
8,CACTGACA,0.132
9,CCTTACCC,-0.182
10,GCGCAGGA,-0.114
11,CATACGAG,0.171
12,AATACCCT,-0.0847
13,CTTCTATA,0.0624
14,AGTGAGGA,0.103
15,AAAAGCCC,-0.209
16,AAAGCTTG,-0.0657
17,GGGTTCTA,-0.121
18,AAGGTTGT,-0.1
19,CCCGCACA,-0.101
20,GCAAAGTA,0.0365
21,TCCCCACA,-0.203
22,AACCTGGG,-0.212
23,TTAACTAA,0.204
24,GCTTTGCC,-0.218
25,AGCGGCGA,0.0363

row,Sequence,PBM E-score
1,AGTCAATA,-0.0223
2,AAATTCTA,0.0776
3,ACGGATCA,0.0794
4,CCGGTATA,-0.056
5,GCTTCCAA,-0.008
6,ACGACCAT,0.119
7,CCACGGTC,-0.0478
8,ATTCAGGC,-0.0517
9,CCAACCCA,-0.127
10,CGGATCGA,-0.146
11,ACACGGTG,0.0335
12,GGCGCTAC,-0.17
13,AAAGGCGA,-0.00133
14,AGAGCGTC,0.0295
15,GGCAGCTA,0.128
16,GTGCATCA,0.271
17,AGGTCAAT,0.0507
18,CGGACCCA,-0.18
19,AATATTCT,0.0588
20,CAGAACTG,0.00223
21,AGCGGTAT,0.00674
22,CTATATAA,-0.178
23,CAGCCAAC,-0.0767
24,AAGGCAGG,-0.065
25,AACGTGAG,0.0297

row,Sequence,PBM E-score
1,CGCCGACA,-0.0736
2,CACGCCGC,-0.19
3,AGCGTGTC,-0.097
4,TATCTGGA,-0.0302
5,ACTTCTAC,0.101
6,GGTTGAGA,-0.0506
7,ACTGTACA,-0.0315
8,TAAAAAAA,0.146
9,ACGGCTTG,0.117
10,CGGTGTGC,-0.0196
11,ATTCCTAG,-0.0148
12,ACACCAAT,0.0514
13,TCCTGACA,0.0415
14,CTATATGA,0.0749
15,CCTCCGGC,0.0837
16,ACCAGGAT,0.0343
17,GCAGATCA,-0.0799
18,CCTCTACG,0.0681
19,ACTGACCA,-0.184
20,ATGGCGGC,-0.112
21,TAATCAAA,0.11
22,GCAATTAC,-0.126
23,AAACCTAT,-0.00276
24,CAATAAGG,-0.13
25,CAAGTGCA,-0.0318

# Single entries from above.
# PBM E-score, CAGAACTG reads 0.00223
# PBM E-score, ATGGCGGC reads -0.112
# PBM E-score, GCTTTGCC reads -0.218
# PBM E-score, CCGGTATA reads -0.056
# PBM E-score, GGCAGCTA reads 0.128
# PBM E-score, AAAAGCCC reads -0.209
# PBM E-score, TATCTGGA reads -0.0302

# Remaining list, next part

row,Sequence,PBM E-score
1,ATCGTATA,0.326
2,AATTACAC,-0.0795
3,ATTATAGG,0.00322
4,AAACCAAC,-0.0828
5,GGGCGGTA,-0.326
6,AGGCGGAA,-0.0884
7,TCGCACAA,0.167
8,AGGCAACA,-0.256
9,ATACATTG,0.221
10,ATGTAGGC,-0.0335
11,GGGTATAC,-0.105
12,CACCTTCG,0.0402
13,CGAATTAG,0.131
14,GCGGACTA,-0.11
15,CTACTTCA,-0.0316
16,CGCACCAC,-0.0525
17,ATAAGTGG,0.126
18,AACGTGCG,0.153
19,TCGCTGAA,0.164
20,GACCCAGC,-0.176
21,CTTATTGA,0.0818
22,CTATCCGC,0.168
23,ACCACTTA,-0.0219
24,GCAGGAGA,-0.0105
25,CAGGTCGG,-0.127

row,Sequence,PBM E-score
1,AGCGGGCG,-0.141
2,CAGCCATC,-0.223
3,ATACTACG,0.153
4,AGATTCTA,0.028
5,GCGTCTAC,-0.0112
6,ACCCGTAT,0.045
7,GCAAGGAA,-0.189
8,AGGCTTAG,-0.185
9,AATTAAAC,0.229
10,CAAAGTAC,0.127
11,CACGAATA,0.255
12,AAGCTTAT,0.00656
13,ACTACCAT,0.0819
14,ACTAGGGA,-0.0927
15,TAGTAATA,0.0958
16,AGATGGGC,-0.0743
17,CTCGGTAA,-0.0512
18,AGATATCT,0.158
19,AAGAGACT,-0.215
20,CCATTCGG,-0.0195
21,AACAACAC,0.0101
22,AACATTAC,0.00558
23,ACCGATAT,0.0499
24,CGAAACCA,0.123
25,CATCAATA,0.177

row,Sequence,PBM E-score
1,ACGCCGAA,-0.0316
2,ACAAACGC,-0.0742
3,CGAACCCG,-0.0227
4,CAATAGGA,-0.00611
5,GATCCGGC,-0.00692
6,AAACTATT,0.0169
7,CAGCCGAA,-0.104
8,CACGGGAG,0.034
9,ACGGGCCT,-0.131
10,CGCCGGTA,-0.187
11,AATATCGA,0.0788
12,GTTAAGTA,-0.0223
13,CTCATATA,-0.00684
14,CGCATCCC,-0.23
15,AGCGCAGA,-0.0505
16,CGTACGTA,0.266
17,CGCGAAAC,-0.108
18,AAAACTAA,0.185
19,ATGGTGAA,0.0369
20,GCATTCCA,-0.136
21,ATGAATCC,0.0636
22,CTGATGCA,0.0185
23,CGTCCTGC,0.0578
24,CGATGACC,0.206
25,ACAGCGAT,0.0184

row,Sequence,PBM E-score
1,TATACGCA,0.153
2,CCACTCGG,-0.147
3,AGTCGCGC,-0.0008
4,CCGATGAC,0.247
5,ATCTTTAG,0.0145
6,CATGTTGC,-0.145
7,CCAGTGCG,-0.0421
8,ATTCCGCC,-0.0862
9,CAAACAGA,0.0366
10,ACCAATTC,0.0749
11,CGGCTCCA,-0.171
12,ATCTAGGA,0.246
13,ACAAGCGT,-0.251
14,AATAAGGT,-0.0898
15,ATGATAAG,0.291
16,ACTCTATC,-0.0127
17,GGTGCTTA,-0.078
18,ATACGTTC,0.0901
19,CAAATCGA,0.0162
20,GATACGAA,0.309
21,ACAGTACG,0.173
22,GACGCCGC,-0.0529

# — the supplement of paper PMC3334620
